Experimental data reported in PubChem BioAssay AID493014 (National Center for Advancing Translational Sciences (NCATS), 2011).
Screen size: about 340,000 compounds; about 170 (0.05%) were called active. The shares of active, inactive and inconclusive entries below differ from those in the screen. Calls come from the whole dose curve; as a rule, active = well fitted inhibition curve with a large enough effect in the signal ratio, with a control signal flat (not every such curve was filed as active); inconclusive = small, poorly fitted or top-dose-only effect, or effect the other way, or a change in a side signal; inactive = flat fitted curve, though single readings scatter; the % refers to the signal ratio. Where the call is inconclusive, the potency comes from a doubtful curve fit.

Experiment: qHTS Assay to Find Inhibitors of Chronic Active B-Cell Receptor Signaling;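 for activity change, negative = inhibition: plate controls were basal doxycycline-induced cells for no effect and cells given 10 µM MG132 for full effect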
Settings: ABC-DLBCL IkBa-CBG/CBR reporter, luminescence ratio (green luciferase fused to IkBa over red control in TMD8 lymphoma cells), 4 h; activity change, negative = inhibition: at 46.1 µM (top of the series)
Procedure, shortened: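 Concentration-response series (up to 46 uM) were applied to TMD8 dual-reporter cells for 4 h at 37C with doxycycline. Green/red ratio, after filter-overlap correction, defined %Activity; red signal alone was normalised to basal cells and zero luminescence.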
Potency is the fitted concentration of half-maximal effect.

SMILES | activity change, negative = inhibition | Potency
O=C(NC1CC1)C1=C[C@@H](c2csc3ccccc23)C[C@@H](OCCCCO)O1 | inconclusive: -19.8% | 
Cc1nn(-c2ccccc2)c2c1C(c1ccc(F)cc1)C(C#N)=C(N)O2 (configuration not stated) | inconclusive: -0.338% | 
CCCCOC(=O)/C=C/c1ccc(OC(=O)OC)c(OC(=O)OC)c1 | inactive: 0.948% | 
Cc1cc(C(=O)C(=O)N(C)C)c(C)n1-c1ccc([N+](=O)[O-])cc1 | inconclusive: 11.2% | 
O=C(CN1C(=O)NC2(CCCC2)C1=O)Nc1ccc(F)c([N+](=O)[O-])c1 |  | inconclusive: 17.8 µM [falling, partial curve, poor fit]
COCCCNC(=S)Nc1cccc(SC)c1 | inconclusive: -0.738% | 
Cc1cc([N+](=O)[O-])nn1CC(=O)NCc1cccs1 | inconclusive: -0.0314% | 
Cc1ccc(C)c(NS(=O)(=O)c2csc(C(N)=O)c2)c1 |  | inconclusive: 25.1 µM [falling, single point]
COc1cccc(-c2nc(-c3ccc4c(c3)-c3ccccc3S4(=O)=O)c(-c3ccccc3)[nH]2)c1OC |  | inconclusive: 10.3 µM [falling, partial curve, poor fit]
CC1CC(=O)N(CC(=O)Nc2ccccc2F)c2ccccc2S1(=O)=O (configuration not stated) | inactive: -5.59% | 
COc1cccc(C2OC(=O)c3ccccc3N2C(C)=O)c1OC(C)=O (configuration not stated) | inconclusive: -4.73% | 
Oc1c(N=NC(=S)Nc2ccccc2F)c2ccccc2n1Cc1cccc(Cl)c1 |  | inconclusive: 11.2 µM [falling, partial curve]
CC1CC(C)CN(C(=O)CSc2nnc(-c3ccc(Cl)cc3)o2)C1 (configuration not stated) | inconclusive: 20% | 
CC(=O)N(c1nc(/C=C\C(=O)O)cs1)c1ccccc1F | inconclusive: 0.302% | 
CN(CCCNC(=O)c1cc2c(Cl)nc3ccccc3c2s1)Cc1ccccc1 | inconclusive: -10.5% | 
CCOCCCn1c(SCC(=O)Nc2ccc(OC)cc2)nc2ccccc2c1=O | inconclusive: 0.0764% | 
COC(=O)c1cc2ccsc2n1CC(=O)Nc1cc(Cl)ccc1OC | inconclusive: -8.35% | 
Cc1cccc(C)c1OCC(=O)Nc1ncn[nH]1 | inconclusive: 1.92% | 
CC1CCCC(C)N1C(=O)c1ccc(S(=O)(=O)NCc2ccco2)cc1 (configuration not stated) |  | inconclusive: 5.62 µM [rising, full curve, poor fit]
COc1cc(-c2noc(C)c2C#Cc2ccsc2)cc(OC)c1OC |  | inconclusive: 11.2 µM [falling, partial curve, poor fit]
CC(C)CC(=O)Nc1ccc(C(=O)Nc2cccc(O)c2)cc1 |  | inconclusive: 3.55 µM [rising, full curve, poor fit]
O=[N+]([O-])c1ccc(CNc2ccc(Cl)cc2)s1 | inconclusive: 3.85% | 
O=c1[nH]c(=O)n(Cc2ccccc2)c2nc(-c3ccc(C(F)(F)F)cc3)n(CCO)c12 | inconclusive: -2.69% | 
COc1ccc(NC(=O)N(CCC(C)C)C(C)c2cccs2)c(OC)c1 (configuration not stated) | inactive: 8.63% | 
COc1cccc(/C=N/NC(=O)c2c(C)nc3ccc(Cl)cn23)c1O | inconclusive: -20% | 
O=C(COc1ccccc1)Nc1ccc([N+](=O)[O-])cc1 | inconclusive: 0.322% | 

Entries from the list above with an NH in an aromatic ring, in the order listed:
SMILES | activity change, negative = inhibition | Potency
COc1cccc(-c2nc(-c3ccc4c(c3)-c3ccccc3S4(=O)=O)c(-c3ccccc3)[nH]2)c1OC |  | inconclusive: 10.3 µM [falling, partial curve, poor fit]
Cc1cccc(C)c1OCC(=O)Nc1ncn[nH]1 | inconclusive: 1.92% | 
O=c1[nH]c(=O)n(Cc2ccccc2)c2nc(-c3ccc(C(F)(F)F)cc3)n(CCO)c12 | inconclusive: -2.69% | 

(list continues)

SMILES | activity change, negative = inhibition | Potency
CCCCOc1ccc(-c2nnn(CC(=O)c3c[nH]c4ccccc34)n2)cc1 | inactive: 1.79% | 
CC1CCC(NC(=O)CCS(=O)(=O)c2ccc3c(c2)CCN3C(=O)C2CC2)CC1 (configuration not stated) | inactive: -0.931% | 
CCc1ccccc1OCC(=O)Nc1cccc(S(=O)(=O)N2CCCC2)c1 |  | inconclusive: 20.6 µM [falling, partial curve]
COc1ccccc1OCC(=O)NNC(=O)c1c(-c2ccccc2Cl)noc1C |  | inconclusive: 11.2 µM [falling, partial curve]
Cc1cc(=O)[nH]c2nnc(SCC(=O)Nc3ccc(OC(F)(F)F)cc3)n12 | inconclusive: -1.67% | 
COc1ccc(CCNC(=O)NC2CCCCC2)cc1OC | inconclusive: 4.51% | 
CCOc1ccc(NC(=O)COc2ccc(OC)cc2)cc1 | inconclusive: 12% | 
Cc1cccc(C)c1NC(=O)Cn1c(=O)n(CCCC(=O)NCc2ccco2)c(=O)c2sccc21 | inconclusive: 15.3% | 
COc1ccccc1NS(=O)(=O)c1cc(NC(=O)c2ccc(Cl)nc2)ccc1N1CCCC1 | inactive: 3.46% | 
COc1ccc(CCNC(=O)c2c([S-])n(-c3ccc(C)cc3)c3cccc[n+]23)cc1 | inactive: 0.404% | 
COc1cc2c(cc1NC(=O)c1ccc3c(c1)OCO3)oc1ccccc12 | inconclusive: 7.8% | 
CN(C)c1ccc(/C=c2/sc3n(c2=O)NC2(c4ccccc4)N(C)C(=O)N(C)C2(c2ccccc2)N=3)cc1 (configuration not stated) | inactive: -6.14% | 
CC1CCCN(S(=O)(=O)c2ccc(NC(=O)c3cccc(-n4cnnn4)c3)cc2)C1 (configuration not stated) | inactive: 7.36% | 
O=C(NC(=S)N1CCOCC1)c1cc2ccccc2o1 | inactive: 0.713% | 
COC(=O)c1c(NC(=O)COc2ncnc3ccccc23)sc(C)c1C | inconclusive: -22.3% | 
Cc1c(C(=O)c2cccc(F)c2)c2ccccn2c1CCC#N | inconclusive: -20.7% | 
COc1ccc(-c2cc3c(=O)n(CC(=O)NC4CCN(Cc5ccccc5)CC4)ncn3n2)cc1 | inconclusive: -4.55% | 
COc1ccccc1NC(=O)NNC(=O)C(C)Oc1ccc2ccccc2c1 (configuration not stated) | inconclusive: 4.78% | 
O=C(NCCc1ccccc1)C(c1cccs1)N(C(=O)c1csnn1)C1CC1 (configuration not stated) | inconclusive: 5.06% | 
COc1ccc(C(CNC(=O)c2cccc(S(=O)(=O)Nc3cccc(C)c3)c2)N2CCOCC2)cc1 (configuration not stated) | inactive: -10.9% | 
NC(=O)c1c(NC(=S)Nc2ccccc2)sc2c1CCCC2 | inconclusive: -2.13% | 
Cc1cc(C(=O)OCC(=O)c2ccc3c(c2)OCCO3)c(C)o1 | inconclusive: -1.82% | 
O=C(Nc1cccc(O)c1)c1cc(-c2ccccc2Cl)on1 |  | inconclusive: 35.5 µM [rising, single point]
CCS(=O)(=O)c1ccc(O)c(NC(=O)COc2ccc(C)cc2)c1 | inconclusive: -0.291% | 
Cn1c(/C=C/c2ccc(Br)cc2)nc2ccccc2c1=O | inconclusive: 3.03% | 
COCCN(C(=O)COC(=O)/C=C/c1ccc2ccccc2n1)c1c(N)n(Cc2ccccc2)c(=O)[nH]c1=O | inconclusive: -5.98% | 
